Laboratory results taken from patent US20250297255A1.
Residue numbers refer to the chain shown, from its start. These are yes or no findings as the source states them, for the method shown. Some entries that bind do so weakly or less than the wild type.

By UniProt entry, the sequences of proteins in these tests, tags left out. Where a name states a change or a piece, a line headed by the entry shows the natural chain unless it says otherwise.
UniProt Q9NRS4: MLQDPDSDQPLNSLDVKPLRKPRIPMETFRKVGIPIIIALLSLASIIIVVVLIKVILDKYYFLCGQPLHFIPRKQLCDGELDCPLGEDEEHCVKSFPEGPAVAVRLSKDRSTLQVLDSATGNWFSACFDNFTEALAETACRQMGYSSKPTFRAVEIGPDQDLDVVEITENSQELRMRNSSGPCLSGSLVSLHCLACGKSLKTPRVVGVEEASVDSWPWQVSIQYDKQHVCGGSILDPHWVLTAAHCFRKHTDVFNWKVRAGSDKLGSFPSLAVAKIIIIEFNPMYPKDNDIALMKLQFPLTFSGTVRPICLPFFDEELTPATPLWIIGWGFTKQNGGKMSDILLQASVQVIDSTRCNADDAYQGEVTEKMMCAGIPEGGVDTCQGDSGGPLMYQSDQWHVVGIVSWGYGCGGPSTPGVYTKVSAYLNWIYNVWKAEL

T1: SLC34A2 peptide fragment (peptide 1) (human)
T1 sequence (peptide, biotinylated (site not stated)): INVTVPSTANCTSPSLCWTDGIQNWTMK

B1: SLC34A2 Ab 15 (antibody, human IgG1, kappa, V domains shown)
VH: QVQLQESGPGLVKPSETLSLTCTVSGGSVSSASYYWSWIRQPPGKGLEYIGYIYYSGSTYYNPSLKSRVTISIDTSKNQFSLNLRSVTAADTAVYYCARYIVGRPGFNWFDPWGQGTLVTVSS
VL: DIQMTQSPSSLSASVGDRVTITCRASQSISSYLNWYQQKPGKAPKFLISPASSLQSGVPSRFSGSGSGTDFTLTISSLQPEDFATYYCQQSYSIPWTFGQGTKVEIKR
B2: SLC34A2 Ab 10 (antibody, human IgG1, kappa, V domains shown)
VH: QVQLLESGGGLVQPGASLRLSCAASGFTFSTYAMTWVRQAPGKGLEWVSGINGGGDTTYYADSVKGRFTISRDNSKNTLYLQMNSLRAEDTAVYYCAVRGYTYGYFFDYWGQGTLVTVSS
VL: DIQMTQSPSSLSASVGDRVTITCRASQGISNYLAWYQQRPGKVPKLLIYAASTLRSGVPSRFSGSGSGTDFTLTISSLQPEDVATYYCQKYNSAPLTFGGGTKVEIKR
B3: SLC34A2 Ab 9 (antibody, human IgG1, kappa, V domains shown)
VH: QVQLVESGGGLVQPGRSLRLSCSGSGFTSGDYAVSWVRQAPGKGLEWVGFIRTKPYGETTEYAASVKGRFTISRDDSKSIAYLQMNSLKAEDTAVFYCTFIPVSRFLEWLPWGQGIPVTVSS
VL: DIQMTQSPSSLSAFVGDRVTITCRASQDIGNYLAWYQQTPEKVPKLLIYAASTLQSGVPSRFSGSGSGTDFTLTISSLQPEDVATYYCQNYYSVPWTFGQGTKVEIKR
B4: SLC34A2 Ab 16 (antibody, human IgG1, kappa, V domains shown)
VH: B1 VH with G27D, A32V, Y49W, Y54W, N83K
VL: B1 VL with S28T, F46L, S53N, S93I
B5: SLC34A2 Ab 5 (antibody, human IgG1, kappa, V domains shown)
VH: QVQLQESGPGLVKPSETLSLTCSVSGGSISSSSYYWGWIRQPPGKGLEWIGSIDYSGSTYYNPSLKSRVTISIDTSKNQFSLRLSSVTAAEKAVYYCARHGRGTIGYFDYWGQGTLVTVSS
VL: B1 VL with F46L, S49Y, P50A, Q55L, S56T, S63T, A84G, I94P, W96L, Q100G
B6: SLC34A2 Ab 6 (antibody, human IgG1, kappa, V domains shown)
VH: QVQLLESGGGLVQPGGSLRLSCAASGFTFSSSAMAWVRQAPGKGLEWVSAISSSGDNTYYADSVKGRFTISRDTSKNTLSLQMSSLRAEDTAIYYCAKQGTNWGLYFDYWGQGTLVTVSS
VL: B2 VL with T22A, G28V, R39K, A50V, R55Q, K90N, L96W, G100Q, V104L
B7: TMPRSS4 Ab73 scFv (VH-VL) (scFv)
scFv: EVQLLESGGGLVQPGGSLRLSCAASGFTFSSYAMHWVRQAPGKGLEWLAVISFDGSIRHYADSVKGRFTISRDNSKNTLYLQMNSLRAEDTAVYYCAKPKASSGPRLIDYWGQGTLVTVSSGGGGSGGGGSGGGGSDIQMTQSPSSLSASVGDRVTITCRASQGISNSLAWYQQKPGKAPKLLIYSAVNLQSGVPSRFSGSGSGTDFTLTISSLQPEDFATYYCQQANSFPLTFGGGTKVEIK

Target: T1, SLC34A2 peptide fragment (peptide 1) (human)
Assay: ELISA, biotinylated antigen on NeutrAvidin plate, anti-human Fc-HRP

binding | Binder
binds | B1
binds | B2
binds | B3
binds | B4

Target: ECL-mFc fusion protein (human SLC34A2 ECL2 fused to murine Fc) (human)
Assay: as above

binding | Binder
binds | B5
binds | B1
binds | B6
binds | B2
binds | B3
binds | B4

Target: Human TMPRSS4 (Transmembrane protease, serine 4), wild type full length (human) (UniProt Q9NRS4)
Assay: flow cytometry, monoclonal phage on HEK293T-TMPRSS4 cells

binding | Binder
binds | B7
